According to publication PMC3457981, “The Role, Interaction and Regulation of the Velvet Regulator VelB in Aspergillus nidulans”:
No constants are given. Whether binding was seen depends on the method and setting. In cells and extracts the contact can be indirect. Here binding means that the protein was enriched with, or labelled near, the bait; the list need not be complete. For part of these data: A no says only that the protein was not detected with the bait. For part of these data: Sequences can lack the tags named with a protein. Each block holds one binder with its values, some of them ahead of it.

Assays:
[1] = target: T1, VelB::3xFLAG (A. nidulans), C8VTS4; experiment: affinity purification with mass spectrometry; lysates of conidia (2 day colonies) and ascospores (7 day colonies) of THS20.1 and WT on anti-FLAG M2 affinity gel, washed three times, SDS-PAGE, Coomassie bands cut out, nano-LC-ESI-MS/MS; settings: remark: other sources report otherwise
T1 chain: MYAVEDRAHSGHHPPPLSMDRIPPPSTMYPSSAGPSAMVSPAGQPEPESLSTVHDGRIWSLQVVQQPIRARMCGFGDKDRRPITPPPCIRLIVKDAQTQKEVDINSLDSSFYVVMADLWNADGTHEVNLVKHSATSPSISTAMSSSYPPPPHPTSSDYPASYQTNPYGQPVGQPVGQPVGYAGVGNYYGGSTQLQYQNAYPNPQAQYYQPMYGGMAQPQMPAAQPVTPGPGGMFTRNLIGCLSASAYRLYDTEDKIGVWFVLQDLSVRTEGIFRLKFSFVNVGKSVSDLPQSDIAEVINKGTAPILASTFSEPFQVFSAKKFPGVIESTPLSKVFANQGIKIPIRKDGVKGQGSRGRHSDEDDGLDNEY

[2] = target: VelB::3xFLAG (A. nidulans) (UniProt C8VTS4); experiment: affinity purification with mass spectrometry; lysate of hyphae (mycelium, 18 h in liquid MM at 37°C) of THS20.1 and WT on anti-FLAG M2 affinity gel, washed three times, SDS-PAGE, Coomassie bands cut out, nano-LC-ESI-MS/MS
[3] = target: VelB::3xFLAG (A. nidulans) (UniProt C8VTS4); experiment: affinity purification with mass spectrometry; lysates of conidia (2 day colonies) and ascospores (7 day colonies) of THS20.1 and WT on anti-FLAG M2 affinity gel, washed three times, SDS-PAGE, Coomassie bands cut out, nano-LC-ESI-MS/MS

- binding [1]: no binding
B1: LaeA, C8VQG9 1-374 (protein)
chain: MFEMGPVGTRLPAMTSPAHNHYSYHSPTSSDRGRSRQNSDAMDIQSITEREPATRYAVAGGPAPWNRNGSPSMSPMYSNNSERNQFHEENGRTYHGFRRGMYFLPCDEQEQDRLDIFHKLFTVARVSESLIYAPHPTNGRFLDLGCGTGIWAIEVANKYPDAFVAGVDLAPIQPPNHPKNCEFYAPFDFEAPWAMGEDSWDLIHLQMGCGSVMGWPNLYRRIFAHLRPGAWFEQVEIDFEPRCDDRSLDGTALRHWYDCLKQATAETMRPIAHSSRDTIKDLQDAGFTEIDHQIVGLPLNPWHQDEHERKVARWYNLAVSESIENLSLAPFSRVYRWPLERIQQLAADVKSEAFNKEIHAYNILHIYQARKPLR

- binding [2]: binds
B2: VeA (protein, UniProt C8VTV4 1-573)
chain: MATLAAPPPPLGESGNSNSVSRITREGKKITYKLNIMQQPKRARACGQGSKSHTDRRPVDPPPVIELNIFESDPHDDSNKTDITFVYNANFFLFATLEPERPIATGKLMTNQGSPVLTGVPVAGVAYLDKPNRAGYFIFPDLSVRNEGSYRFSFHLFEQIKDPKDATEGTQPMPSPVPGKLSSPQEFLEFRLEVISNPFIVYSAKKFPGLTTSTPISRMIAEQGCRVRIRRDVRMRRRGDKRTEDYDYDNERGYNNRRPDQYAGSDAYANAPERPRSTSISTNMDPYSYPSRRPSAVEYGQPIAQPYQRPMASTPAPSSTPIPAPIPMPGPVALPPSTPSPASAHAPAPPSVPLAAPPPLHTPSYQSHLSFGATQTQYPAPQLSHIPQQTTTPTHPYSPRSSISHSRNQSISEYEPSMGYPGSQTRLSAERPSYGQPSQTTSLPPLRHSLEPSVNSRSKTPSNMITSLPPIQSLSELPSTTSQPSSAIGSSPANEPGPRLWETNSMLSKRTYEESFGHDDRPLYNGMRPDSESYPGGMQRRPSYERSSLLDGPDQMAYKRANGRMVSKPATMR
- binding [3]: no binding (only in conidia and ascospores)
